Laboratory results from article PMC3711072.
Results are given in words; binding and its absence hold for the method and conditions named. Some entries that bind do so weakly or less than the wild type.

By UniProt entry, the sequences of proteins in these tests, tags left out. Residues count along the entry.
UniProt P55774, residues 21-89: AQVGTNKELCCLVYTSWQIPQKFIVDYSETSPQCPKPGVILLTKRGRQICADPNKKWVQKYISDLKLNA
UniProt P0C8E7, residues 21-114: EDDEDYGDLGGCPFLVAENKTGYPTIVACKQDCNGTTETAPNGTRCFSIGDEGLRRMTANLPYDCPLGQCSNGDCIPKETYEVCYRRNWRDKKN

Molecular target: CC chemokine ligand 18 (CCL18) (human) (UniProt P55774)
Experiment: far-Western, overlay or dot blot; Dot-Blot of CCL18 with Evasin-1, -3 and -4; data not shown; format not told; both purified

With Evasin-1 (from UniProt P0C8E7 21-114) the binding was “binds”.
